Results deposited as PubChem BioAssay AID1259308 (NCATS, 2017)
Aim: 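Candidate targets for better recombinant protein yield in mammalian cells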 (primary screen). System: human HEK293 embryonic kidney cells stably expressing firefly luciferase (HEK-CMV-Luc2-Hygro). Reagents: single siRNA against human genes, 0.8 pmol siRNA per well. Duration: 72 h. Measurement: 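Reporter luminescence and viable-cell signal on separate replicate plates, given as percent of non-targeting control and median/MAD z-scores, plus per-cell luciferase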. Direction: total luciferase, z-score: higher = more reporter protein produced. Active means: 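An siRNA counts as active if its total luciferase robust z-score exceeds 3; genes with two or more such siRNAs out of three were retested with fresh siRNAs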. Meaning of the calls: active = raised luciferase; inactive = no rise.
Shown is one part, drawn at random, of about 59,000 reagents. Over the whole deposit, about 1,510 (2.6%) are marked active. 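Calls use total luciferase alone and ignore viability, so some active siRNAs may act by altering cell number.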 Unmarked entries are inactive. Further read-outs or replicates are left out here.

total luciferase, z-score, by target and reagent
ZMYND10: SID160740682 2.2; SID160740683 1.35; SID160740685 0.907
MSMP: SID160726440 -0.346; SID160771134 -0.364; SID160771135 -0.165
BMX: SID160728474 -0.991; SID160728485 -0.0852; SID160728495 2.35

2 entries from above, set out differently:
| target | PubChem SID | total luciferase, z-score |
| --- | --- | --- |
| MSMP | SID160726440 | -0.346 |
| MSMP | SID160771134 | -0.364 |

Next records follow:
total luciferase, z-score, by target and reagent
RPL10: SID160716041 -0.896; SID160716042 -2.06; SID160724024 -2.81
NFKB1: SID160778020 1.71; SID160778021 -0.918; SID160778022 1.21
SLCO5A1: SID160750986 2.83; SID160750987 -1.55; SID160750988 -0.165
ZNF816: SID160756342 -0.0113; SID160756343 -0.515; SID160756344 1.46
SLC9A8: SID160735989 -0.204; SID160735990 -0.298; SID160735991 0.223
